For at least one compound, name, drawing or mass did not settle the structure. Residues, ends and D or L forms follow the SMILES beside them.
Target: T1, human NR1-NR2A NMDA receptor subunits (Homo sapiens, UniProt Q05586+Q12879)
T1 construct: expressed in transfected cells; host or cells: Xenopus laevis oocytes
Assay: amphibian oocyte current blockade assay (agonist-evoked currents)
Type: cell-based
Conditions: Table 1, peptides; NMDA receptor current blockade in oocytes
Description: Briefly, in the amphibian oocyte current blockade assay, human NMDA receptors are expressed in the oocytes. The receptors are stimulated in the cells by NMDA agonists. Agonist-induced current is the control against which current blockade levels achieved by incubating the oocytes with candidate NMDA blockers are measured.
(A) NMDA specific receptor channel blocking peptides ("NMDA blockers") were identified by screening synthetic combinatorial libraries (SCL) (see e.g., the library and peptide synthesis methods described in Ostresh, et al., Meth Enzymol (1996) 267:220-34, incorporated herein by reference) and assaying for blockade of agonist-evoked currents by the human NR1-NR2A NMDA receptor subunits expressed in amphibian (Xenopus laevis) oocytes (see, for example, the assay method described in Ferrer-Monteil and Montal, METHODS:A Companion to Methods in Enzymology (1994) 6:60-68, incorporated herein by reference).
(D) The compounds prepared in part (B) above were examined for activity against human brain NMDA receptors (composed of NR1 and NR2A subunits) expressed in oocytes. Ionic currents were activated by 200 μM L-glutamate (L-GIu) 20 μM glycine (Gly), at a holding potential Vh =[…]. Ba^2+ /flufenamic Ringer solution was supplemented with agonist and compounds of the invention, and blockade activity determined for each compound. […]

Sequences of proteins named here, by UniProt entry; tags and fusion partners are left off. Residues count along the entry.
UniProt Q12879, 23-1464: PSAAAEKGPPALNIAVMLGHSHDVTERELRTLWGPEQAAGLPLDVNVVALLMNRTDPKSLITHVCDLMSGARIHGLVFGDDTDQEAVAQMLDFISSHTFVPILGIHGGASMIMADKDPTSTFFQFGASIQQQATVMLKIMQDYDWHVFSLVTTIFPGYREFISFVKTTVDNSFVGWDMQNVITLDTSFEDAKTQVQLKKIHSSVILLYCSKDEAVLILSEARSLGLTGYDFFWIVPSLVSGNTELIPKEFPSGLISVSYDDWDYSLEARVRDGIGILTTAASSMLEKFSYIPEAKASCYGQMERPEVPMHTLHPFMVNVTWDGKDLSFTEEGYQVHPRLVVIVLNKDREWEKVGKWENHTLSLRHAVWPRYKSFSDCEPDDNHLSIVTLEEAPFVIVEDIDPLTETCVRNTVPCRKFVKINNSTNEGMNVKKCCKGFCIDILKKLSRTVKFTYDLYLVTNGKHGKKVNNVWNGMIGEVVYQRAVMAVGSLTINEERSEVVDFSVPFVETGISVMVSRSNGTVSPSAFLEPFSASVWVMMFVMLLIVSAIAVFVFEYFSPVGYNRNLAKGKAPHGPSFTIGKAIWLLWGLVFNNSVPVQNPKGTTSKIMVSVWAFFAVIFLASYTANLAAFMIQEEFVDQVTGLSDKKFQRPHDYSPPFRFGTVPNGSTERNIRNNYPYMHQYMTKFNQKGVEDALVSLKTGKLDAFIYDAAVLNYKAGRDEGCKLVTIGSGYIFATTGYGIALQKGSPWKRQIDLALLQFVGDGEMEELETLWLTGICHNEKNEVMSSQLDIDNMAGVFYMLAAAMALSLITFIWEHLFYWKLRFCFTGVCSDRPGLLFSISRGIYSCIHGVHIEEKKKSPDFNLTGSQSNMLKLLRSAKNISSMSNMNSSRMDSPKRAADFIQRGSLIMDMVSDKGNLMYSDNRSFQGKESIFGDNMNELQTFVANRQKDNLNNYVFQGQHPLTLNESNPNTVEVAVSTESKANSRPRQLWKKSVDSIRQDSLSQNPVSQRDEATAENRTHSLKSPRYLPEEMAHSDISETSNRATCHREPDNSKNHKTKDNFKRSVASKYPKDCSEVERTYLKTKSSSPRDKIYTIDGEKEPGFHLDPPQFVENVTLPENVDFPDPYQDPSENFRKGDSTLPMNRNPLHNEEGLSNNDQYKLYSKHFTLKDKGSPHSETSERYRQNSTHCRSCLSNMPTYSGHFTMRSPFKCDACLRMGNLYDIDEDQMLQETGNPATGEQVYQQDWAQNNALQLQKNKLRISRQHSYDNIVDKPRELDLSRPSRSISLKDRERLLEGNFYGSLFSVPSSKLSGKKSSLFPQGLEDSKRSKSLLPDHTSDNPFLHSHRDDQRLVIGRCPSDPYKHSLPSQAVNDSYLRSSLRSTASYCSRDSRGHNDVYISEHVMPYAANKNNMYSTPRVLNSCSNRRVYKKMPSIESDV

N=C(N)NCCC[C@H](NC(=O)[C@@H](N)CCCNC(=N)N)C(N)=O [RR] (H-Arg-Arg-NH2)
IC50: 12 ± 4 µM

From patent US6251854A, “N-methyl-d-aspartate receptor channel blockers and method for identifying such” (priority 1999, dated 2001)
